Measured values: paper PMC7862700
This is a selection; strong and weak results do not stand in their true shares. At the low end of the ranking the order means little.

By UniProt entry, the sequences of proteins in these tests, tags left out. Where a name states a change or a piece, a line headed by the entry shows the natural chain unless it says otherwise.
UniProt Q01892: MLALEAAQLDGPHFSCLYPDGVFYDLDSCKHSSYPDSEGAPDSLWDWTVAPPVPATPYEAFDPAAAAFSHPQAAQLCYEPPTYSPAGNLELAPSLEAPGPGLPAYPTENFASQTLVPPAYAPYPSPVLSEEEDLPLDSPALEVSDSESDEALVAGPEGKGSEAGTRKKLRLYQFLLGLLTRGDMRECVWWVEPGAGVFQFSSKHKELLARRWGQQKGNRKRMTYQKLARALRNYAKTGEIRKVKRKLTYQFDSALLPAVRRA
UniProt P41161: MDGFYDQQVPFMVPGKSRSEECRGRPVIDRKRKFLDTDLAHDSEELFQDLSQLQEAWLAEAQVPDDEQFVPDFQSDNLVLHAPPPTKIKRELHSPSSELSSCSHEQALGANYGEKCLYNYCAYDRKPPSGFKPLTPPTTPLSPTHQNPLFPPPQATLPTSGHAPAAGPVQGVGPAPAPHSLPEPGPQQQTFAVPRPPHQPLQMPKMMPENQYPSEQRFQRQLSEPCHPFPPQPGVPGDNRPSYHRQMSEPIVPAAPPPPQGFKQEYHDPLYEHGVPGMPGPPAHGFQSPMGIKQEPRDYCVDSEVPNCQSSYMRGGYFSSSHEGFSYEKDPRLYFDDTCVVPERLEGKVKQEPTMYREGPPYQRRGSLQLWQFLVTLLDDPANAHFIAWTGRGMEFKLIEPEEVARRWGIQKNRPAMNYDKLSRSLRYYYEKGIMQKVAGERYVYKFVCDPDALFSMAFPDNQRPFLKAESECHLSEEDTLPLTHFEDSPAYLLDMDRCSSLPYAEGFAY
UniProt Q99607: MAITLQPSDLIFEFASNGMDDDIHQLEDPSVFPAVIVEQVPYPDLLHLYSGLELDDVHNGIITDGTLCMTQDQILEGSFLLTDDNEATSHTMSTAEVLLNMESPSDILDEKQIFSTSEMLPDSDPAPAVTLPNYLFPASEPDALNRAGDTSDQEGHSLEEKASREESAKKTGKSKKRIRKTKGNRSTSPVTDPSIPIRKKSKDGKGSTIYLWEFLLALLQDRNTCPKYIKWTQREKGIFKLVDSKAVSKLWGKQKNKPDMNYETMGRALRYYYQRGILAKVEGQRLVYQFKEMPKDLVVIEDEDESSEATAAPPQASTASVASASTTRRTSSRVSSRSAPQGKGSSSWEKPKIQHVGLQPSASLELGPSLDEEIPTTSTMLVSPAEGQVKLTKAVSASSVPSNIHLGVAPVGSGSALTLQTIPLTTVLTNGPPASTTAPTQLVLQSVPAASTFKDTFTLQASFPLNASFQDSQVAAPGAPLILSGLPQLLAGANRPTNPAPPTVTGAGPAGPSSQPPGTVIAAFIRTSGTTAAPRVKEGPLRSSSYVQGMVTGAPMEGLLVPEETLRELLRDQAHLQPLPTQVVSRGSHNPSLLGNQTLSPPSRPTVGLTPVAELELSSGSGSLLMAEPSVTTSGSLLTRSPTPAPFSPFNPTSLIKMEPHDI

Key:
Assay in all cases: DAPPL (digital affinity profiling via proximity ligation, sequencing)
Details in all cases: 10 mM Tris-HCl pH 7.5, 50 mM NaCl, 1 mM DTT, 4% glycerol, room temperature, 30 min; GST-TFs on glutathione beads, 16-mer random dsDNA library, 0.1% …; high values mean tight binding; double strand, one strand shown; scale: fold enrichment (6-mer frequency, TF over GST control)
FLI1 = target: T1, FLI1 (UniProt Q01543)
T1 sequence: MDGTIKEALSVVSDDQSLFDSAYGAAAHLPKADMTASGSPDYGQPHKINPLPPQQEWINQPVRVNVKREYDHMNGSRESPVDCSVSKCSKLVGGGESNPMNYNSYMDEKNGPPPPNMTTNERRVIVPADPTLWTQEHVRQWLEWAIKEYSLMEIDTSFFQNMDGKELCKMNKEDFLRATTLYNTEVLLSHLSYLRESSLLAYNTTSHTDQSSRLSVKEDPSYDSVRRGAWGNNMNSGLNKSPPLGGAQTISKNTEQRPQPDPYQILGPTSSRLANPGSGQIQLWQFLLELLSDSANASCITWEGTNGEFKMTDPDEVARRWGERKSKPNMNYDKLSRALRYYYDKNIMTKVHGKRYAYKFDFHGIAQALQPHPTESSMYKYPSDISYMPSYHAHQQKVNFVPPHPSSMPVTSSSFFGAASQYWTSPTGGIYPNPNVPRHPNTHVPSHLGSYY

EHF = target: T2, EHF (UniProt Q9NZC4)
T2 sequence: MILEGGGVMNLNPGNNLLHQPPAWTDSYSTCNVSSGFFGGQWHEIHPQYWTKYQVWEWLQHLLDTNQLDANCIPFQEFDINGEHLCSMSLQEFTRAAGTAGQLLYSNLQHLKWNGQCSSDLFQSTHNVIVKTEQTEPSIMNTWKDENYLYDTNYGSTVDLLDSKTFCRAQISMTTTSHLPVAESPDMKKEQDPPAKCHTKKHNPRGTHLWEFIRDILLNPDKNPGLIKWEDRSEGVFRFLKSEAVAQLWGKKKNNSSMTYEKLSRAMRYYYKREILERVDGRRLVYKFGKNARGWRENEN

SPIB = SPIB (UniProt Q01892)
ETV5 = ETV5 (UniProt P41161)
ELF4 = ELF4 (UniProt Q99607)
ETV2 = target: T3, ETV2 (UniProt O00321)
T3 sequence: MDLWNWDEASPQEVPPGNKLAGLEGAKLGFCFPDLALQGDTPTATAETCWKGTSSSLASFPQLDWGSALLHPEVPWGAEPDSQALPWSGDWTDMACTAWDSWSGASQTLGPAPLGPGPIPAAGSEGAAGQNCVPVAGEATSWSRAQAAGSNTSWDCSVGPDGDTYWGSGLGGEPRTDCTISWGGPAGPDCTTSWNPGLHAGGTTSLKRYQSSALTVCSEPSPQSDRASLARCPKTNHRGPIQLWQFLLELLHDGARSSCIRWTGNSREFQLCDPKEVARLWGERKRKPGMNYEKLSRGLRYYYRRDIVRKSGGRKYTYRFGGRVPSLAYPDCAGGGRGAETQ

ETV3L = target: T4, ETV3L (UniProt Q6ZN32)
T4 sequence: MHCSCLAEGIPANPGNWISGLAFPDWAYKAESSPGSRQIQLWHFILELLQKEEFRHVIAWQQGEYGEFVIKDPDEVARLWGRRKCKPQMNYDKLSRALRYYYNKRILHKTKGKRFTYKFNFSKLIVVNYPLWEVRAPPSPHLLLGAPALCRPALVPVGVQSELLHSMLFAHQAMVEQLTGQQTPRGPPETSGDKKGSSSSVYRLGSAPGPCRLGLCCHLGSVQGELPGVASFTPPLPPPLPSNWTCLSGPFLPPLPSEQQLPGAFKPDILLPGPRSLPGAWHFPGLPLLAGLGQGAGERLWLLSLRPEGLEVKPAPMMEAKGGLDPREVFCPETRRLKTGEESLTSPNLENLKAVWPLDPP

| Sequence | binding signal (FLI1) | binding signal (EHF) | binding signal (SPIB) | binding signal (ETV5) | binding signal (ELF4) | binding signal (ETV2) | binding signal (ETV3L) |
| --- | --- | --- | --- | --- | --- | --- | --- |
| GGACCA | 0.766 | 0.763 | 0.755 | 0.687 | 0.805 | 0.848 | 0.825 |
| GCTGAG | 0.63 | 0.701 | 0.696 | 0.684 | 0.709 | 0.65 | 0.692 |
| AGGGGG | 0.591 | 0.563 | 0.61 | 0.58 | 0.608 | 0.616 | 0.661 |
| CGGAAT | 0.847 | 0.976 | 0.973 | 0.977 | 0.867 | 0.928 | 0.875 |
| CGTCGT | 0.895 | 0.898 | 0.82 | 0.842 | 0.822 | 0.856 | 0.918 |
| TGGGTC | 0.696 | 0.667 | 0.643 | 0.635 | 0.666 | 0.617 | 0.692 |
| GAGCAT | 0.74 | 0.758 | 0.676 | 0.774 | 0.755 | 0.845 | 0.761 |
| CAAGGG | 0.882 | 0.881 | 0.871 | 0.821 | 0.956 | 0.765 | 0.926 |
| GAACGG | 0.583 | 0.591 | 0.609 | 0.621 | 0.628 | 0.758 | 0.652 |
| GGAGGA | 0.263 | 0.261 | 0.235 | 0.259 | 0.252 | 0.269 | 0.263 |
| CTGTGA | 0.488 | 0.519 | 0.518 | 0.49 | 0.516 | 0.484 | 0.501 |
| GATCGT | 0.442 | 0.405 | 0.404 | 0.418 | 0.431 | 0.406 | 0.467 |
| GCGTAA | 0.886 | 0.91 | 0.95 | 0.841 | 0.897 | 0.857 | 0.886 |
| CGCGGG | 0.781 | 0.715 | 0.814 | 0.708 | 0.767 | 0.823 | 0.739 |
| GTGGGA | 0.59 | 0.582 | 0.545 | 0.596 | 0.56 | 0.601 | 0.575 |
| AAAGAG | 0.902 | 0.975 | 0.928 | 0.946 | 0.951 | 0.914 | 0.876 |
| GGGGCG | 0.632 | 0.657 | 0.59 | 0.666 | 0.653 | 0.717 | 0.619 |
| GCTGTG | 0.763 | 0.693 | 0.71 | 0.715 | 0.699 | 0.748 | 0.61 |
| CGGTGT | 0.713 | 0.721 | 0.725 | 0.724 | 0.722 | 0.855 | 0.74 |
| GGATTG | 0.791 | 0.764 | 0.856 | 0.783 | 0.845 | 0.712 | 0.856 |

Two records picked at random from the list so far:

| Sequence | binding signal (FLI1) | binding signal (EHF) | binding signal (SPIB) | binding signal (ETV5) | binding signal (ELF4) | binding signal (ETV2) | binding signal (ETV3L) |
| --- | --- | --- | --- | --- | --- | --- | --- |
| GGATTG | 0.791 | 0.764 | 0.856 | 0.783 | 0.845 | 0.712 | 0.856 |
| GCTGTG | 0.763 | 0.693 | 0.71 | 0.715 | 0.699 | 0.748 | 0.61 |

Carrying on.

| Sequence | binding signal (FLI1) | binding signal (EHF) | binding signal (SPIB) | binding signal (ETV5) | binding signal (ELF4) | binding signal (ETV2) | binding signal (ETV3L) |
| --- | --- | --- | --- | --- | --- | --- | --- |
| GGTTGA | 0.716 | 0.8 | 0.748 | 0.757 | 0.768 | 0.846 | 0.8 |
| CGGCGG | 0.572 | 0.578 | 0.625 | 0.603 | 0.589 | 0.551 | 0.607 |
| AACGAG | 0.824 | 0.755 | 0.848 | 0.767 | 0.768 | 0.743 | 0.714 |
| GGCGCT | 0.777 | 0.655 | 0.697 | 0.693 | 0.728 | 0.78 | 0.745 |
| CCGAGT | 0.912 | 0.912 | 0.897 | 0.916 | 0.95 | 0.981 | 0.949 |
| ATCCAG | 0.853 | 0.873 | 0.853 | 0.819 | 0.883 | 0.902 | 0.848 |
| GCGGCG | 0.713 | 0.738 | 0.74 | 0.755 | 0.789 | 0.72 | 0.782 |
| AGCGGG | 0.485 | 0.487 | 0.517 | 0.502 | 0.469 | 0.505 | 0.489 |
| CGGAGG | 0.278 | 0.285 | 0.254 | 0.265 | 0.273 | 0.263 | 0.313 |
| TGGGCC | 0.964 | 0.929 | 0.904 | 0.804 | 0.856 | 0.986 | 0.949 |
| TGCCAG | 0.678 | 0.666 | 0.691 | 0.722 | 0.683 | 0.704 | 0.57 |
| GACTGT | 0.44 | 0.404 | 0.454 | 0.437 | 0.427 | 0.437 | 0.438 |
| TGCGGG | 0.863 | 0.841 | 0.855 | 0.81 | 0.862 | 0.828 | 0.835 |
| AAGAGG | 0.774 | 0.911 | 0.914 | 0.849 | 0.851 | 0.84 | 0.819 |
| CGGTGC | 0.694 | 0.71 | 0.709 | 0.712 | 0.738 | 0.645 | 0.724 |
| CAGTGC | 0.772 | 0.734 | 0.745 | 0.77 | 0.782 | 0.639 | 0.688 |
| GAGTGA | 0.419 | 0.435 | 0.404 | 0.436 | 0.395 | 0.453 | 0.419 |
| GTGCCA | 0.843 | 0.788 | 0.775 | 0.796 | 0.761 | 0.846 | 0.808 |
| GGTCCG | 0.687 | 0.785 | 0.765 | 0.806 | 0.682 | 0.715 | 0.817 |
| ACTGAG | 0.752 | 0.768 | 0.721 | 0.738 | 0.743 | 0.782 | 0.807 |

| Sequence | binding signal (FLI1) | binding signal (EHF) | binding signal (SPIB) | binding signal (ETV5) | binding signal (ELF4) | binding signal (ETV2) | binding signal (ETV3L) |
| --- | --- | --- | --- | --- | --- | --- | --- |
| AGTGAA | 0.882 | 0.992 | 0.813 | 0.942 | 0.897 | 0.888 | 0.901 |
| CCAGTT | 0.594 | 0.597 | 0.681 | 0.646 | 0.638 | 0.617 | 0.653 |
| GTCGTA | 0.63 | 0.569 | 0.601 | 0.601 | 0.618 | 0.69 | 0.566 |
| TGTCGA | 0.904 | 0.863 | 0.853 | 0.892 | 0.904 | 0.742 | 0.785 |
| TTGGAG | 0.535 | 0.549 | 0.547 | 0.566 | 0.531 | 0.469 | 0.515 |
| ACAACG | 0.878 | 0.965 | 0.915 | 0.91 | 0.982 | 0.813 | 0.982 |
| CGCAGT | 0.769 | 0.753 | 0.788 | 0.782 | 0.757 | 0.917 | 0.743 |
| TACCAG | 0.822 | 0.886 | 0.802 | 0.849 | 0.877 | 0.905 | 0.862 |
| GACGAT | 0.916 | 0.932 | 0.986 | 0.872 | 0.92 | 0.826 | 0.882 |
| TGTAGG | 0.794 | 0.797 | 0.809 | 0.812 | 0.788 | 0.937 | 0.797 |
| CGCGTG | 0.662 | 0.63 | 0.708 | 0.628 | 0.654 | 0.694 | 0.667 |
| AGCCGT | 0.499 | 0.496 | 0.465 | 0.451 | 0.477 | 0.494 | 0.491 |
| CGGCCG | 0.931 | 0.871 | 0.891 | 0.862 | 0.849 | 0.838 | 0.847 |
| GAGATC | 0.446 | 0.467 | 0.445 | 0.491 | 0.457 | 0.516 | 0.424 |
| AGTCAA | 0.595 | 0.609 | 0.57 | 0.656 | 0.611 | 0.659 | 0.647 |
| GTAGGA | 0.601 | 0.588 | 0.612 | 0.64 | 0.534 | 0.626 | 0.612 |
| GCATAG | 0.744 | 0.769 | 0.781 | 0.82 | 0.863 | 0.719 | 0.861 |
| TTGTCG | 0.791 | 0.887 | 0.812 | 0.857 | 0.805 | 0.732 | 0.787 |
| TGAGAG | 0.602 | 0.565 | 0.531 | 0.591 | 0.611 | 0.599 | 0.578 |
| CCCGGG | 0.847 | 0.827 | 0.815 | 0.794 | 0.8 | 0.817 | 0.745 |

In a second layout: entries from further up.
Sequence	binding signal (FLI1)	binding signal (EHF)	binding signal (SPIB)	binding signal (ETV5)	binding signal (ELF4)	binding signal (ETV2)	binding signal (ETV3L)
AGGGGG	0.591	0.563	0.61	0.58	0.608	0.616	0.661
CGGAAT	0.847	0.976	0.973	0.977	0.867	0.928	0.875
CTGTGA	0.488	0.519	0.518	0.49	0.516	0.484	0.501
CGCGGG	0.781	0.715	0.814	0.708	0.767	0.823	0.739
GGTTGA	0.716	0.8	0.748	0.757	0.768	0.846	0.8
AACGAG	0.824	0.755	0.848	0.767	0.768	0.743	0.714
GGCGCT	0.777	0.655	0.697	0.693	0.728	0.78	0.745
CCGAGT	0.912	0.912	0.897	0.916	0.95	0.981	0.949
AAGAGG	0.774	0.911	0.914	0.849	0.851	0.84	0.819
GAGTGA	0.419	0.435	0.404	0.436	0.395	0.453	0.419
ACTGAG	0.752	0.768	0.721	0.738	0.743	0.782	0.807
AGTGAA	0.882	0.992	0.813	0.942	0.897	0.888	0.901
TGTCGA	0.904	0.863	0.853	0.892	0.904	0.742	0.785
ACAACG	0.878	0.965	0.915	0.91	0.982	0.813	0.982
TGTAGG	0.794	0.797	0.809	0.812	0.788	0.937	0.797
CGGCCG	0.931	0.871	0.891	0.862	0.849	0.838	0.847
AGTCAA	0.595	0.609	0.57	0.656	0.611	0.659	0.647
GTAGGA	0.601	0.588	0.612	0.64	0.534	0.626	0.612
